PubChem BioAssay AID743121 – NCATS, 2013

Aim: 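Partners whose loss is lethal together with topoisomerase I blockade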 (primary screen)
Cell system: MDA-MB-231 cells, a human breast cancer line
Reagents: single siRNA against human genes, 20 nM siRNA (0.8 pmol per well)
Duration: 120 h (drug added 48 h after transfection, read 72 h later)
Challenge: camptothecin 20 nM (about EC30) for 72 h; vehicle 0.1% DMSO in parallel plates
Read-out: 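CellTiter-Glo ATP signal, scaled to control siRNA as percent viability; sensitisation given as log2 of untreated divided by camptothecin-treated viability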
Direction: log2 vehicle/camptothecin viability: higher = stronger sensitisation to camptothecin
Call rule: 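Active genes have an RSA gene-level p-value below 0.001, computed from the ratios of their separate siRNAs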
The deposit covers about 26,000 reagents; below is a random part of them. Over the whole deposit, 167 (0.63%) got an active call. 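Calls are per gene from RSA p-values that are not deposited; an individual active-marked siRNA can sensitise only weakly.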 The numbers tell different reagents against one gene apart. Further read-outs or replicates are left out here.

Depletion of BPGM (GeneID 669) #1 came out at: log2 vehicle/camptothecin viability -0.0763; inactive.
After knock-down of BPGM (GeneID 669) #2 the results were log2 vehicle/camptothecin viability 0.158; inactive.
Knock-down of BPGM (GeneID 669) #3 resulted in: log2 vehicle/camptothecin viability -0.396; inactive.
Silencing of BPGM (GeneID 669) #4 gave: log2 vehicle/camptothecin viability -0.443; inactive.
SCARF1 (GeneID 8578) #1 gave log2 vehicle/camptothecin viability 0.758; inactive.
For SCARF1 (GeneID 8578) #2 the deposit lists log2 vehicle/camptothecin viability -0.358; inactive.
SCARF1 (GeneID 8578) #3 scored log2 vehicle/camptothecin viability -0.383; inactive.
For ITFG2 (GeneID 55846) #1, the values are log2 vehicle/camptothecin viability 0.119; inactive.
ITFG2 (GeneID 55846) #2 scored log2 vehicle/camptothecin viability 0.0713; inactive.
Against ITFG2 (GeneID 55846) #3 the deposit lists log2 vehicle/camptothecin viability 0.337; inactive.
ITFG2 (GeneID 55846) #4 gave log2 vehicle/camptothecin viability -0.174; inactive.
After knock-down of HMGB1 (GeneID 3146) #1 the results were log2 vehicle/camptothecin viability -0.533; inactive.
For HMGB1 (GeneID 3146) #2, the values are log2 vehicle/camptothecin viability -0.296; inactive.
HMGB1 (GeneID 3146) #3 scored log2 vehicle/camptothecin viability -0.347; inactive.
HMGB1 (GeneID 3146) #4 showed log2 vehicle/camptothecin viability -0.0511; inactive.
NAALAD2 (GeneID 10003) #1 gave log2 vehicle/camptothecin viability -0.255; inactive.
NAALAD2 (GeneID 10003) #2 gave log2 vehicle/camptothecin viability -0.286; inactive.
Against NAALAD2 (GeneID 10003) #3 the deposit lists log2 vehicle/camptothecin viability 0.0884; inactive.
Depletion of NAALAD2 (GeneID 10003) #4 resulted in: log2 vehicle/camptothecin viability -0.00508; inactive.
Knock-down of CLCN7 (GeneID 1186) #1 resulted in: log2 vehicle/camptothecin viability 0.445; inactive.
After knock-down of CLCN7 (GeneID 1186) #2, the screen gave log2 vehicle/camptothecin viability -0.406; inactive.
With knock-down of CLCN7 (GeneID 1186) #3, the screen gave log2 vehicle/camptothecin viability 0.141; inactive.
Silencing of SMC2 (GeneID 10592) #1 came out at: log2 vehicle/camptothecin viability -0.167; inactive.
Knock-down of SMC2 (GeneID 10592) #2 resulted in: log2 vehicle/camptothecin viability -0.11; inactive.
With knock-down of SMC2 (GeneID 10592) #3 the results were log2 vehicle/camptothecin viability -0.027; inactive.
For SMC2 (GeneID 10592) #4, the values are log2 vehicle/camptothecin viability -0.383; inactive.
Silencing of CDC42SE2 (GeneID 56990) #1 came out at: log2 vehicle/camptothecin viability -0.625; inactive.
After knock-down of CDC42SE2 (GeneID 56990) #2, the record shows log2 vehicle/camptothecin viability 0.399; inactive.
For CDC42SE2 (GeneID 56990) #3, the values are log2 vehicle/camptothecin viability -0.514; inactive.
Depletion of CDC42SE2 (GeneID 56990) #4 resulted in: log2 vehicle/camptothecin viability -0.162; inactive.
Against HASPIN (GeneID 83903) #1 the deposit lists log2 vehicle/camptothecin viability -0.32; inactive.
Against HASPIN (GeneID 83903) #2, the values are log2 vehicle/camptothecin viability -0.299; inactive.
HASPIN (GeneID 83903) #3 showed log2 vehicle/camptothecin viability -0.695; inactive.
With knock-down of HASPIN (GeneID 83903) #4, the record shows log2 vehicle/camptothecin viability 0.0764; inactive.
For DIAPH1 (GeneID 1729) #1, the entry reads log2 vehicle/camptothecin viability -0.49; inactive.
Depletion of DIAPH1 (GeneID 1729) #2 came out at: log2 vehicle/camptothecin viability -0.285; inactive.
Against DIAPH1 (GeneID 1729) #3 the deposit lists log2 vehicle/camptothecin viability -0.327; inactive.
Depletion of DIAPH1 (GeneID 1729) #4 resulted in: log2 vehicle/camptothecin viability -0.222; inactive.

A stretch from the list above, as a working copy:
CDC42SE2 (GeneID 56990) #1 → log2 vehicle/camptothecin viability = -0.625; Outcome = inactive
CDC42SE2 (GeneID 56990) #2 → log2 vehicle/camptothecin viability = 0.399; Outcome = inactive
CDC42SE2 (GeneID 56990) #3 → log2 vehicle/camptothecin viability = -0.514; Outcome = inactive
